PubChem BioAssay AID720505 – Drosophila RNAi Screening Center | 2013

- Purpose: 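Genes needed for store-operated calcium entry in fly cells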 (primary screen)
- System: Drosophila S2R+ cells
- Reagents: long dsRNA against Drosophila genes
- Conditions: thapsigargin (2 µM) in calcium-free buffer to empty internal stores, then 2 mM calcium added back
- Measurement: 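Stores emptied by 2 µM thapsigargin without calcium, then 2 mM calcium re-added; fluo-4 fluorescence followed by FLIPR in 384-well plates, per-well averaged endpoint, raw; two screen passes, some wells retested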
- Reading the numbers: calcium signal: higher = more calcium entry after store depletion
- Rule for the call: 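About 1500 genes called as lowering calcium entry, by varying amounts, judged against per-plate control wells with STIM1 as positive and Rho1 as negative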
- Meaning of the calls: active = called as lowering calcium entry; inactive = not called
The screen tested about 20,000 reagents; shown is an unselected part of those that have a named target and a result. In the full data, about 2,100 (10%) are marked active. 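Raw plate signals without normalisation; calls rest on control-based scores that were not deposited; replicate 2 separates called from uncalled poorly.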 Entries without a mark were called inactive. A plus sign joins genes that one reagent is predicted to hit. Not stated in the record: the amount of reagent, the time to read-out.

{"target":"CG14410","DRSC id":"DRSC19596","calcium signal, replicate 1":122,"calcium signal, replicate 2":87.6}
{"target":"Mo25","DRSC id":"DRSC11224","calcium signal, replicate 1":84.4,"calcium signal, replicate 2":98.1}
{"target":"LManI","DRSC id":"DRSC02838","calcium signal, replicate 1":188,"calcium signal, replicate 2":151}
{"target":"ACXC","DRSC id":"DRSC00846","calcium signal, replicate 1":111,"calcium signal, replicate 2":108}
{"target":"CG6138","DRSC id":"DRSC02933","calcium signal, replicate 1":174,"calcium signal, replicate 2":147}
{"target":"Syx5","DRSC id":"DRSC03432","calcium signal, replicate 1":91.6,"calcium signal, replicate 2":118}
{"target":"CG15695","DRSC id":"DRSC15117","calcium signal, replicate 1":223,"calcium signal, replicate 2":140}
{"target":"CG31797","DRSC id":"DRSC02476","calcium signal, replicate 1":191,"calcium signal, replicate 2":107}
{"target":"CG31797","DRSC id":"DRSC02477","calcium signal, replicate 1":178,"calcium signal, replicate 2":75.9}
{"target":"CG14245","DRSC id":"DRSC14740","calcium signal, replicate 1":117,"calcium signal, replicate 2":123}
{"target":"CG13068","DRSC id":"DRSC09951","calcium signal, replicate 1":69.2,"calcium signal, replicate 2":140}
{"target":"lectin-30A","DRSC id":"DRSC02560","calcium signal, replicate 1":167,"calcium signal, replicate 2":161}
{"target":"Ugt302C1","DRSC id":"DRSC15353","calcium signal, replicate 1":123,"calcium signal, replicate 2":158}
{"target":"NC2beta","DRSC id":"DRSC01895","calcium signal, replicate 1":122,"calcium signal, replicate 2":165}
{"target":"Hand","DRSC id":"DRSC02656","calcium signal, replicate 1":179,"calcium signal, replicate 2":183}
{"target":"Helz","DRSC id":"DRSC11072","calcium signal, replicate 1":122,"calcium signal, replicate 2":103}
{"target":"asRNA:CR30267 + CG42260","DRSC id":"DRSC03953","calcium signal, replicate 1":184,"calcium signal, replicate 2":15916}
{"target":"unc-13-4A","DRSC id":"DRSC10201","calcium signal, replicate 1":91.7,"calcium signal, replicate 2":30.6}
{"target":"unc-13-4A","DRSC id":"DRSC10202","calcium signal, replicate 1":67.5,"calcium signal, replicate 2":53.1}
{"target":"unc-13-4A","DRSC id":"DRSC10203","calcium signal, replicate 1":"55.6 (active)","calcium signal, replicate 2":46}
{"target":"unc-13-4A","DRSC id":"DRSC11013","calcium signal, replicate 1":70.7,"calcium signal, replicate 2":60.1}
{"target":"Su(var)2-HP2","DRSC id":"DRSC06204","calcium signal, replicate 1":174,"calcium signal, replicate 2":152}
{"target":"TpnC25D","DRSC id":"DRSC02965","calcium signal, replicate 1":182,"calcium signal, replicate 2":98}
{"target":"hang","DRSC id":"DRSC19901","calcium signal, replicate 1":160,"calcium signal, replicate 2":139}
{"target":"hang","DRSC id":"DRSC19902","calcium signal, replicate 1":90.9,"calcium signal, replicate 2":117}
{"target":"hang","DRSC id":"DRSC23216","calcium signal, replicate 1":170,"calcium signal, replicate 2":206}
{"target":"Np","DRSC id":"DRSC06089","calcium signal, replicate 1":120,"calcium signal, replicate 2":145}
{"target":"Np","DRSC id":"DRSC07094","calcium signal, replicate 1":115,"calcium signal, replicate 2":93.2}
{"target":"Np","DRSC id":"DRSC22421","calcium signal, replicate 1":101,"calcium signal, replicate 2":160}
